The test addresses DISP-FLAG (Dispatched, SHH deployment protein, FLAG-tagged) (UniProt Q3TDN0). In words: co-IP.

Amino acid sequences for entries named in this document (tags omitted).
UniProt Q3TDN0: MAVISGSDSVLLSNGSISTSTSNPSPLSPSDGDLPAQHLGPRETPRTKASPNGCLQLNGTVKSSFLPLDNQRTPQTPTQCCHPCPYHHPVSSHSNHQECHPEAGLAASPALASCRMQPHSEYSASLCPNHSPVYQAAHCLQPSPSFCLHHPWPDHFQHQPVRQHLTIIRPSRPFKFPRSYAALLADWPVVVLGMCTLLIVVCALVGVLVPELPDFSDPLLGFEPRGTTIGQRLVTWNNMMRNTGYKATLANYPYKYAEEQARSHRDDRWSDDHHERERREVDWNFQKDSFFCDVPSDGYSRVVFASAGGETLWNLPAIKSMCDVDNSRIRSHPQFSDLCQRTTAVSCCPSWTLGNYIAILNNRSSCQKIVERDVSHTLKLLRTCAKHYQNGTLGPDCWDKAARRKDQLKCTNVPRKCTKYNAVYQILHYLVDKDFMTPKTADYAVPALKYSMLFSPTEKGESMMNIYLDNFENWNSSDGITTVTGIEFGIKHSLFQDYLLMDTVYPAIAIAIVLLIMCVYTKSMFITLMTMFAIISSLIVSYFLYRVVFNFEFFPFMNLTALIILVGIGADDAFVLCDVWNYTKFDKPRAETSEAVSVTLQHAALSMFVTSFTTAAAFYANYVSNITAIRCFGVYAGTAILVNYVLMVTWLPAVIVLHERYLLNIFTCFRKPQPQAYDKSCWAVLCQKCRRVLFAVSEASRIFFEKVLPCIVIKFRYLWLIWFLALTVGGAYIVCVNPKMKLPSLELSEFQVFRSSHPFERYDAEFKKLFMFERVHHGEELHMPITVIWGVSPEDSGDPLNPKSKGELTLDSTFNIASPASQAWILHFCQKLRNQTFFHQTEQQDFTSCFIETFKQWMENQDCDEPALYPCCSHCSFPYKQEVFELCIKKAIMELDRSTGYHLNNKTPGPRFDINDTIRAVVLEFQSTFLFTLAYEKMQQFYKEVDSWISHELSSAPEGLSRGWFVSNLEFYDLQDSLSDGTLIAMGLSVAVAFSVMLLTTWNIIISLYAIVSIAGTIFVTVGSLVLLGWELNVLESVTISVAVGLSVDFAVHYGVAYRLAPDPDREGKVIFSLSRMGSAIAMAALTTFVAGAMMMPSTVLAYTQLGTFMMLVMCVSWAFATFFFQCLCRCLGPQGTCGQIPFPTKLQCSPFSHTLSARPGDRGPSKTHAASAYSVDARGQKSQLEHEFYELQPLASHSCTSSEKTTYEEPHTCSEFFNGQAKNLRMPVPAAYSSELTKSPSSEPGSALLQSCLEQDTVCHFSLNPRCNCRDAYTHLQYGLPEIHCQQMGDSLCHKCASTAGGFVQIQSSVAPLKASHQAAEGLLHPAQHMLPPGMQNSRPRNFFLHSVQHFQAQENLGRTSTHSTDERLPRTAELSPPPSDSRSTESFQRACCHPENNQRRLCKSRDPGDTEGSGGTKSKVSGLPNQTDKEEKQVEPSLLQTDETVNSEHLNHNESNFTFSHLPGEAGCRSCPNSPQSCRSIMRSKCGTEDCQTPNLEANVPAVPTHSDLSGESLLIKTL

Results are given in words; binding and its absence hold for the method and conditions named. Binding seen in cells or lysates may run through a third protein. Some binding calls cover weakened binding; strength is not graded here. Tags and fused reporters may be left off the sequences shown.

B1: CDON-EGFP (receptor, UniProt Q4KMG0 26-1287)
chain: DLAPYFTSEPLSAVQKLGGPVVLHCSAQPVTTRISWLHNGKTLDGNLEHVKIHQGTLTILSLNSSLLGYYQCLANNSIGAIVSGPATVSVAVLGDFGSSTKHVITAEEKSAGFIGCRVPESNPKAEVRYKIRGKWLEHSTENYLILPSGNLQILNVSLEDKGSYKCAAYNPVTHQLKVEPIGRKLLVSRPSSDDVHILHPTHSQALAVLSRSPVTLECVVSGVPAPQVYWLKDGQDIAPGSNWRRLYSHLATDSVDPADSGNYSCMAGNKSGDVKYVTYMVNVLEHASISKGLQDQIVSLGATVHFTCDVHGNPAPNCTWFHNAQPIHPSARHLTAGNGLKISGVTVEDVGMYQCVADNGIGFMHSTGRLEIENDGGFKPVIITAPVSAKVADGDFVTLSCNASGLPVPVIRWYDSHGLITSHPSQVLRSKSRKSQLSRPEGLNLEPVYFVLSQAGASSLHIQAVTQEHAGKYICEAANEHGTTQAEASLMVVPFETNTKAETVTLPDAAQNDDRSKRDGSETGLLSSFPVKVHPSAVESAPEKNASGISVPDAPIILSPPQTHTPDTYNLVWRAGKDGGLPINAYFVKYRKLDDGVGMLGSWHTVRVPGSENELHLAELEPSSLYEVLMVARSAAGEGQPAMLTFRTSKEKTASSKNTQASSPPVGIPKYPVVSEAANNNFGVVLTDSSRHSGVPEAPDRPTISTASETSVYVTWIPRANGGSPITAFKVEYKRMRTSNWLVAAEDIPPSKLSVEVRSLEPGSTYKFRVIAINHYGESFRSSASRPYQVVGFPNRFSSRPITGPHIAYTEAVSDTQIMLKWTYIPSSNNNTPIQGFYIYYRPTDSDNDSDYKRDVVEGSKQWHMIGHLQPETSYDIKMQCFNEGGESEFSNVMICETKVKRVPGASEYPVKDLSTPPNSLGSGGNVGPATSPARSSDMLYLIVGCVLGVMVLILMVFIAMCLWKNRQQNTIQKYDPPGYLYQGSDMNGQMVDYTTLSGASQINGNVHGGFLTNGGLSSGYSHLHHKVPNAVNGIVNGSLNGGLYSGHSNSLTRTHVDFEHPHHLVNGGGMYTAVPQIDPLECVNCRNCRNNNRCFTKTNSTFSSSPPPVVPVVAPYPQDGLEMKPLSHVKVPVCLTSAVPDCGQLPEESVKDNVEPVPTQRTCCQDIVNDVSSDGSEDPAEFSRGQEGMINLRIPDHLQLAKSCVWEGDSCAHSETEINIVSWNALILPPVPEGCAEKTMWSPPGIPLDSPTEVLQQPRET
With B1, the binding entry is reported as “binds”.

B2: BOC-EGFP (receptor, UniProt Q9BWV1 31-1114)
chain: DLNEVPQVTVQPASTVQKPGGTVILGCVVEPPRMNVTWRLNGKELNGSDDALGVLITHGTLVITALNNHTVGRYQCVARMPAGAVASVPATVTLANLQDFKLDVQHVIEVDEGNTAVIACHLPESHPKAQVRYSVKQEWLEASRGNYLIMPSGNLQIVNASQEDEGMYKCAAYNPVTQEVKTSGSSDRLRVRRSTAEAARIIYPPEAQTIIVTKGQSLILECVASGIPPPRVTWAKDGSSVTGYNKTRFLLSNLLIDTTSEEDSGTYRCMADNGVGQPGAAVILYNVQVFEPPEVTMELSQLVIPWGQSAKLTCEVRGNPPPSVLWLRNAVPLISSQRLRLSRRALRVLSMGPEDEGVYQCMAENEVGSAHAVVQLRTSRPSITPRLWQDAELATGTPPVSPSKLGNPEQMLRGQPALPRPPTSVGPASPQCPGEKGQGAPAEAPIILSSPRTSKTDSYELVWRPRHEGSGRAPILYYVVKHRKVTNSSDDWTISGIPANQHRLTLTRLDPGSLYEVEMAAYNCAGEGQTAMVTFRTGRRPKPEIMASKEQQIQRDDPGASPQSSSQPDHGRLSPPEAPDRPTISTASETSVYVTWIPRGNGGFPIQSFRVEYKKLKKVGDWILATSAIPPSRLSVEITGLEKGTSYKFRVRALNMLGESEPSAPSRPYVVSGYSGRVYERPVAGPYITFTDAVNETTIMLKWMYIPASNNNTPIHGFYIYYRPTDSDNDSDYKKDMVEGDKYWHSISHLQPETSYDIKMQCFNEGGESEFSNVMICETKARKSSGQPGRLPPPTLAPPQPPLPETIERPVGTGAMVARSSDLPYLIVGVVLGSIVLIIVTFIPFCLWRAWSKQKHTTDLGFPRSALPPSCPYTMVPLGGLPGHQASGQPYLSGISGRACANGIHMNRGCPSAAVGYPGMKPQQHCPGELQQQSDTSSLLRQTHLGNGYDPQSHQITRGPKSSPDEGSFLYTLPDDSTHQLLQPHHDCCQRQEQPAAVGQSGVRRAPDSPVLEAVWDPPFHSGPPCCLGLVPVEEVDSPDSCQVSGGDWCPQHPVGAYVGQEPGMQLSPGPLVRVSFETPPLTI
For the molecule B2, the binding result is given as “binds”.

The values above are taken from publication doi:10.1101/2020.05.06.080820.
